Laboratory results taken from publication PMC11250262.
Results are given in words; binding and its absence hold for the method and conditions named. Binding seen in cells or lysates may run through a third protein. Some entries that bind do so weakly or less than the wild type.

By UniProt entry, the sequences of proteins in these tests, tags left out. Residues count along the entry.
UniProt P41968: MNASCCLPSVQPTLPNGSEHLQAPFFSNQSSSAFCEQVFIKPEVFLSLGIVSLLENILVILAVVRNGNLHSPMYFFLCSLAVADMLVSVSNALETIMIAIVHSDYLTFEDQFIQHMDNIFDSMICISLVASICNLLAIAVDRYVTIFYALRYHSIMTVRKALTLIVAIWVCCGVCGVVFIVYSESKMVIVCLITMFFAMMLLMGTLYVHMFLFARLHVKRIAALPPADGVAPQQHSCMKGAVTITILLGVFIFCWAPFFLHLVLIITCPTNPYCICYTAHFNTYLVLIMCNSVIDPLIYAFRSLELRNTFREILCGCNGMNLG
UniProt Q9NYM4, residues 17-423: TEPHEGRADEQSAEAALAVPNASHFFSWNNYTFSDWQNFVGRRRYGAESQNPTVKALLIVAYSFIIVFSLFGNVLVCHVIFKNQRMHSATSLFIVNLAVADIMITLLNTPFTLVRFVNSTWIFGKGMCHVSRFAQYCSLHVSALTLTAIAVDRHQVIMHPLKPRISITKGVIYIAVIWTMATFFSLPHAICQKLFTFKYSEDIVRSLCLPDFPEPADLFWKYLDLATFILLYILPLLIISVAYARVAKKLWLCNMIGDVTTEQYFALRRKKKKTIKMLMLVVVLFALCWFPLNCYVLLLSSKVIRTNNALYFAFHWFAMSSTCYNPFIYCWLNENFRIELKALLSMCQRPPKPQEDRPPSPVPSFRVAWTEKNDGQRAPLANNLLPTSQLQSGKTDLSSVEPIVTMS

Molecular target: MC3R-RlucII (human) (UniProt P41968)
Assay: FRET or BRET; BRET1 in titration configuration in HEK293 cells; constant MC3R-RlucII plasmid (0.5 ng per well), increasing doses of GPR83-Venus plasmid; soluble Venus as negative control; 24 h post-transfection, Tyrode's buffer, read 10 min after coelenterazine H; four independent experiments

binding: binds
Substance: GPR83-Venus (from UniProt Q9NYM4-1 17-423) (receptor)
